PMC4777538
No constants are given. Whether binding was seen depends on the method and setting. Binding seen in cells or lysates may run through a third protein.

The chains behind the UniProt entries cited, without tags or fusion partners.
UniProt P10275: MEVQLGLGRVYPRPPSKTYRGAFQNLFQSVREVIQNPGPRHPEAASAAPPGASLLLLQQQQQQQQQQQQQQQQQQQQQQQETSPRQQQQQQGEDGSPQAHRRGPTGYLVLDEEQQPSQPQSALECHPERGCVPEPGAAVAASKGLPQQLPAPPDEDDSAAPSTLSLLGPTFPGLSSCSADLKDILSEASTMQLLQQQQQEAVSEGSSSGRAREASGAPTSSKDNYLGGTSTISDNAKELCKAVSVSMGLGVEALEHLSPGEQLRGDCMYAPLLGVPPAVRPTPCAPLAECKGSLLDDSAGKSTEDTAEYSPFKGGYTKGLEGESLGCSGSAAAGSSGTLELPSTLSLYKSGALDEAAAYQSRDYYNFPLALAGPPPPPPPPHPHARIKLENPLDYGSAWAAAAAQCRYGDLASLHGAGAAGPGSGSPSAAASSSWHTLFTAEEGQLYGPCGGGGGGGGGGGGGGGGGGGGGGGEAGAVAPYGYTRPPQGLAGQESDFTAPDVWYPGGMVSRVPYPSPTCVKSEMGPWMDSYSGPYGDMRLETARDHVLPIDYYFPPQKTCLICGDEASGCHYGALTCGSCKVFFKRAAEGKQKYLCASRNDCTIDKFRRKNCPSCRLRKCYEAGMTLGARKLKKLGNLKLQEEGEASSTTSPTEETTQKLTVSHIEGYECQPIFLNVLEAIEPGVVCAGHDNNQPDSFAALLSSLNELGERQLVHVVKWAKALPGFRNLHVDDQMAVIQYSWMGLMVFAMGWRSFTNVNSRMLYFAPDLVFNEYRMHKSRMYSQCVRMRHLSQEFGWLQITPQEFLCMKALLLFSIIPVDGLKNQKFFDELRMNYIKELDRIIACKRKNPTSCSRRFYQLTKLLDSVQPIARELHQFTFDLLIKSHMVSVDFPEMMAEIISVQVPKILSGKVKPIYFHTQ

Molecular target: T1, CCCTC-binding factor (CTCF) (human (endogenous in RWPE-1 and LNCaP)) (UniProt P49711)
T1 sequence: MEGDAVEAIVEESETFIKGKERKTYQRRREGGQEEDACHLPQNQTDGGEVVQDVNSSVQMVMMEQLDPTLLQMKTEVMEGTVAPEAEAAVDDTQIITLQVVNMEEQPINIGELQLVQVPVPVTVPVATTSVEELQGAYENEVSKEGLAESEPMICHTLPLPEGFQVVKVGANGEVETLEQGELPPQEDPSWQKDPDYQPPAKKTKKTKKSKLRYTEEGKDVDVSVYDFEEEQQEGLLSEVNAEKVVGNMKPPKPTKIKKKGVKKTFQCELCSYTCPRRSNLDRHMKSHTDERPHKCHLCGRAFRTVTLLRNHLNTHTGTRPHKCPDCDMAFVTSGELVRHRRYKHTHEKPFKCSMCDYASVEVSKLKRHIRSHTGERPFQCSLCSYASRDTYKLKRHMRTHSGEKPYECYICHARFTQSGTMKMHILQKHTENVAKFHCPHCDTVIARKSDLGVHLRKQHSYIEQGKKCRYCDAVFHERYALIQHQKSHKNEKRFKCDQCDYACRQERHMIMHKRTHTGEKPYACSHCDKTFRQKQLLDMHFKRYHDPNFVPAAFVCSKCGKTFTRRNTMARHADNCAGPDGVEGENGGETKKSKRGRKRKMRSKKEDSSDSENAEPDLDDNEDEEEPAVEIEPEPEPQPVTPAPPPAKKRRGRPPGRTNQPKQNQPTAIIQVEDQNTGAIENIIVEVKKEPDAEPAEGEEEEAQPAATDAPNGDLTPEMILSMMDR
Assay: co-IP; immunoprecipitation by CTCF antibody, western blotting by AR, CTCF or GAPDH; RWPE-1 and LNCaP cells, LNCaP also with synthetic androgen R1881

binding: no binding
Substance: androgen receptor (AR) (from UniProt P10275 1-920)
